The results in this text go back to publication PMC10321293.

The chains behind the UniProt entries cited, without tags or fusion partners.
UniProt O55013: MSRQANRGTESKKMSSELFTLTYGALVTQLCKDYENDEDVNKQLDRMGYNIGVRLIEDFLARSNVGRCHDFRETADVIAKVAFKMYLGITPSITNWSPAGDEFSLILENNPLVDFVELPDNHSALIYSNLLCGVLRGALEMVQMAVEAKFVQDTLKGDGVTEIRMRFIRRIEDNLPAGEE
UniProt Q9ES56: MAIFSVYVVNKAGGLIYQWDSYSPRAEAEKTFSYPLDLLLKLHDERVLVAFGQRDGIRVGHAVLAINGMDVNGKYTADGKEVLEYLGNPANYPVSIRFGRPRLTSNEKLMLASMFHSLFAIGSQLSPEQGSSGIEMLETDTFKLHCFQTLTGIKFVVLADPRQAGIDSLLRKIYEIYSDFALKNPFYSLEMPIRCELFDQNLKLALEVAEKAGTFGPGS

The target in this experiment is mTrappc3 (mouse (endogenous in mouse brain)) (UniProt O55013). The experiment is described as follows: co-IP; brain tissue lysate (RIPA buffer, 500 ug) of mTrappc9^+/+ and mTrappc9^m/m mice; TRAPPC3 antibody 1:500 at 4 C for 2 h or overnight; protein A magnetic beads; washed with PBS; western blot. A general note: In western blotting, separated proteins are transferred to a membrane and probed.

No constants are given. Whether binding was seen depends on the method and setting. In cells and extracts the contact can be indirect. Some binding calls cover weakened binding; strength is not graded here.

For mTrappc4 (from UniProt Q9ES56 1-219), the binding entry is given as “binds”.
